These are yes or no findings as the source states them, for the method shown.
Biological target: full-length PgDPP III (Porphyromonas gingivalis W83) (UniProt Q7MX92)
Experiment: SAXS; full-length PgDPP III at 8.8, 4.43 and 1.02 mg/mL in 50 mM Tris-HCl pH 8.0, 100 mM NaCl; molecular weight from I(0) against BSA; both purified

The chains behind the UniProt entries cited, without tags or fusion partners.
UniProt Q7MX92: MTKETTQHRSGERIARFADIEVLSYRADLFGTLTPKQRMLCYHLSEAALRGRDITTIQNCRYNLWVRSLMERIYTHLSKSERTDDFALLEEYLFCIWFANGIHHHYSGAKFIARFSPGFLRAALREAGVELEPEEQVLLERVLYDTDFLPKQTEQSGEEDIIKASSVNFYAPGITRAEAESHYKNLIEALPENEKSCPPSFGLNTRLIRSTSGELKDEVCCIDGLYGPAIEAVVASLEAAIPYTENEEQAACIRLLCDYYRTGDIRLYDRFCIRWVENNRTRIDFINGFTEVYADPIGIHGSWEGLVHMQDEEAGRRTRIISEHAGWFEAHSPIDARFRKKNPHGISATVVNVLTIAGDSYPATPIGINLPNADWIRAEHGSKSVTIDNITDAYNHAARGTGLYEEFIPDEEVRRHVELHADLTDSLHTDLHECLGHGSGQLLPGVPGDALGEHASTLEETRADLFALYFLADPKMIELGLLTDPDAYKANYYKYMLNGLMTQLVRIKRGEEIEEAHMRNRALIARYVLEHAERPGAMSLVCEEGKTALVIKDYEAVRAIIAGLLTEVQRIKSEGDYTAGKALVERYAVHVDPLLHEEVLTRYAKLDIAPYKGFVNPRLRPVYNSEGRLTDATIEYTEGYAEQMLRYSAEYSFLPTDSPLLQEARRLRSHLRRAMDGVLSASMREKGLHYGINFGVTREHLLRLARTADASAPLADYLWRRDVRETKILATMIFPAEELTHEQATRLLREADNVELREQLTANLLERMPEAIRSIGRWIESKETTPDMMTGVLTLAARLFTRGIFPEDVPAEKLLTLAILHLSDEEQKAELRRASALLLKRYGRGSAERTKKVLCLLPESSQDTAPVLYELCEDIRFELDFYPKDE

full-length PgDPP III (from UniProt Q7MX92 1-886) (enzyme)
binding: no binding (tested: 8.8, 4.43, and 1.02 mg/mL)
